Test results published in US7732451B2, “Naphthalene-containing melanocortin receptor-specific small molecule” (Palatin Technologies, Inc., priority 2002, dated 2010).
At least one structure is not confirmed: it was looked up by name or label, or the drawing left a doubt.

Chains of the proteins cited; added tags and fusions are not shown. Lines headed by an entry give the natural chain unless they say otherwise; changes in a name come on top.
UniProt Q01727: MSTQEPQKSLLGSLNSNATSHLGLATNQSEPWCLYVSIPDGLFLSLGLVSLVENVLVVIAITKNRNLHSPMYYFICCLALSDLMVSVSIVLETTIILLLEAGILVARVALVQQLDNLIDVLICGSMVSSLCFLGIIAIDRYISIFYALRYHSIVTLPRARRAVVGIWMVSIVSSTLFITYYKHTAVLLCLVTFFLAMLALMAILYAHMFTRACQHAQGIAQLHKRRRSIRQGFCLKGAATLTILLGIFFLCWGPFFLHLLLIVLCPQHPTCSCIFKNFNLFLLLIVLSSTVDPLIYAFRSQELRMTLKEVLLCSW
UniProt P32245, whole entry: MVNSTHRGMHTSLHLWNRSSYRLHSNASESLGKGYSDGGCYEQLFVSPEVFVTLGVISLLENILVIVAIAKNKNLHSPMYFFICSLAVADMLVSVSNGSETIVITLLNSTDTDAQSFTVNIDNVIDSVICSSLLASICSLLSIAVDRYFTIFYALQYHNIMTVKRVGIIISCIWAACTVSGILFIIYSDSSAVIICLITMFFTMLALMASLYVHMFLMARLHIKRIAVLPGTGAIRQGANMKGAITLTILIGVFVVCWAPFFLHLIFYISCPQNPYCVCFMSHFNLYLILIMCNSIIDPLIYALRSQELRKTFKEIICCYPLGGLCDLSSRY
UniProt P33032: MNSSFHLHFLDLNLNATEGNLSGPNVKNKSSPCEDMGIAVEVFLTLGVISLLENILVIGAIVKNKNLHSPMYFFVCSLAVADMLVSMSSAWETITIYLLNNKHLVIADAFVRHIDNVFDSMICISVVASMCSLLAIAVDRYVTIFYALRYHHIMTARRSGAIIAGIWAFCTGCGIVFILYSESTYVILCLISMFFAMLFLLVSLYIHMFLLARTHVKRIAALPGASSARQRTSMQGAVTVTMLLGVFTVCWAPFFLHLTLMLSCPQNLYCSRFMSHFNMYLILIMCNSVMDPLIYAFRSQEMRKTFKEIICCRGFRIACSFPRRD

Columns and labels:
[1] = penile erection (PE) studies in male rats; type: in vivo, rat
Description: The ability of compounds to induce penile erection (PE) in male rats was evaluated with selected compounds. Male Sprague-Dawley rats weighing 200-250 g were kept on a 12 hour on/off light cycle with food and water ad libitum. All behavioral studies were performed between 10 a.m. and 5 p.m. Groups of 4-8 rats were treated with compounds at a variety of doses via intravenous (IV) or intracerebroventricular (ICV) routes. Immediately after treatment, rats were placed into individual polystyrene cages (27 cm long, 16 cm wide, and 25 cm high) for behavioral observation. The iv and icv treated rats were observed respectively for 30 minutes and 120 min and the number of yawns, grooming bouts and PEs were recorded in 10-minute bins.

[2] = molecular target: T1, MC1-R (B-16 mouse melanoma cells) (Mus musculus, UniProt Q01727); test: cAMP assay for agonist/antagonist status; type: cell-based; settings: antagonism = inhibition of α-MSH-induced cAMP
T1 construct: B-16 mouse melanoma cells (containing MC1-R); endogenous in cells; host or cells: B-16 mouse melanoma cells
Description: (§1) Functional evaluation of compounds at melanocortin receptors was performed by measuring the accumulation of intracellular cAMP in HEK-293 cells expressing MC3-R, MC4-R or MC5-R, and in B-16 mouse melanoma cells (containing MC1-R). Cells, suspended in Earle's Balanced Salt Solution containing 10 mM HEPES, pH 7.5, 5 mM MgCl2, 1 mM glutamine, 0.1% albumin and 0.6 mM 3-isobutyl-1-methyl-xanthine, a phosphodiesterase inhibitor, were plated in 96 well plates at a density of 0.5×10^5 cells per well. Cells were incubated with the test compounds in the presence or absence of α-MSH for 1 hour at 37° C. cAMP levels were measured by EIA (Amersham) in the cell lysates. Data analysis and EC50 values were determined using nonlinear regression analysis with Prism Graph-Pad software.
(§2) The agonist/antagonist status with respect to MC4-R of certain compounds of the invention was determined. Antagonistic activity was determined by measuring the inhibition of α-MSH-induced cAMP levels following exposure to the compounds as in Example 2.

[3] = molecular target: T2, MC4-R (HEK-293 cells expressing MC4-R) (Homo sapiens, UniProt P32245); test: cAMP assay for agonist/antagonist status; type: cell-based; settings: antagonism = inhibition of α-MSH-induced cAMP
T2 construct: expressed in transfected cells; host or cells: HEK-293
Description: as §1, §2

[4] = molecular target: T3, MC5-R (HEK-293 cells expressing MC5-R) (Homo sapiens, UniProt P33032); test: cAMP assay for agonist/antagonist status; type: cell-based; settings: antagonism = inhibition of α-MSH-induced cAMP
T3 construct: expressed in transfected cells; host or cells: HEK-293
Description: as §1, §2

NCCCC[C@H]1C(=O)N(CCc2ccc3ccccc3c2)CCN1C(=O)[C@@H](Cc1ccc(Cl)cc1Cl)NC(=O)[C@@H]1CC[C@H](c2ccccc2)N1 [Example 7]
PE effect ([1]; ICV, dose levels of 0.1 to 10 nmol): no observed effect
PE effect ([1]; IV, dose levels of 0.001 to 10 μg/Kg): no observed effect
agonist/antagonist status as to MC1-R [2]: agonist
agonist/antagonist status as to MC4-R [3]: agonist
agonist/antagonist status as to MC5-R [4]: agonist
